Experimental findings from PMC9523778, “Understanding Supramolecular Assembly of Supercharged Proteins” (ACS Central Science, 2022) are described below.

The test addresses T1, GFP-17.
T1 construct: negatively supercharged GFP variant with 11 supercharging mutations, nominal net charge -17 at pH 7.4; also called fully supercharged GFP variant; source: designed and expressed
The test is described as follows: FRET or BRET; dynamic subunit exchange with GFP-17nf at 25 mM NaCl; kd from a kinetic model (sequential unimolecular dissociation of monomers from the protomer) matched to the normalized FRET ratio; 0.05 uM protomer, 4 uM analogue. Conditions: both partners purified.

B1: Ceru+32b (other)
chain: MASKGEKLFKGVVPILVELKGKVNGHKFKVRGEGEGDAKNGKLRLKFICTTGKLPVPWPTLVTTLTWGVQCFSRYPDHMKRHDFFKSAMPEGYVQKRKISFKKDGTYKTRAEVKFEGKTLVNRIKLKGIKFKKDGNILGHKLRYNGISDKVYIKADKKKNGIKAKFKIRHNVKDGSVQLADHYQQNTPIGDGPKLLPRKHYLSTKSVLRKDPNEKRDHMVLLEFVTAAGITKGMDELYK
modifications: matured Cerulean chromophore (TWG); C-terminal LEHHHHHH tag left out
Turning to B1, the koff was in the range of 0.0025 to 0.004 s⁻¹.
